Assay results reported in paper doi:10.1101/2020.11.24.395475.
For at least one entry, the source does not settle the construct or the ends of the probe. At least one verdict rests on a figure or table, not on a statement of the authors.

Chains of the proteins cited; added tags and fusions are not shown.
UniProt Q9UGN5, whole entry G338A: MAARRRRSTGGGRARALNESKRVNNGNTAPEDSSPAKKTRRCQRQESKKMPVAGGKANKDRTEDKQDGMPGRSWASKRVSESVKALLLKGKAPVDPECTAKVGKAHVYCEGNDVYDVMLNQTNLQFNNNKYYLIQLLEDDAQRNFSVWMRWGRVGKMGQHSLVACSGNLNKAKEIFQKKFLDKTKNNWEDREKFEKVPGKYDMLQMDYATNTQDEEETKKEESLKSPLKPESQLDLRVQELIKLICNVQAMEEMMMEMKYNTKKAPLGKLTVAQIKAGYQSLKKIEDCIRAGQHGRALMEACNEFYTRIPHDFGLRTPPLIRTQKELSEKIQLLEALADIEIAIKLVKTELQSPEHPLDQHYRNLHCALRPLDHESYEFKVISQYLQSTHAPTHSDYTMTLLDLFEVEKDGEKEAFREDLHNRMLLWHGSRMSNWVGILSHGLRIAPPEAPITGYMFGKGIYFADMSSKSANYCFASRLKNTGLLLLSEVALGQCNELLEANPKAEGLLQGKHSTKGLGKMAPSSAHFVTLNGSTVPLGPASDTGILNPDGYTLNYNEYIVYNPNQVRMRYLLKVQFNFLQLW
UniProt Q9UGN5, whole entry N129A: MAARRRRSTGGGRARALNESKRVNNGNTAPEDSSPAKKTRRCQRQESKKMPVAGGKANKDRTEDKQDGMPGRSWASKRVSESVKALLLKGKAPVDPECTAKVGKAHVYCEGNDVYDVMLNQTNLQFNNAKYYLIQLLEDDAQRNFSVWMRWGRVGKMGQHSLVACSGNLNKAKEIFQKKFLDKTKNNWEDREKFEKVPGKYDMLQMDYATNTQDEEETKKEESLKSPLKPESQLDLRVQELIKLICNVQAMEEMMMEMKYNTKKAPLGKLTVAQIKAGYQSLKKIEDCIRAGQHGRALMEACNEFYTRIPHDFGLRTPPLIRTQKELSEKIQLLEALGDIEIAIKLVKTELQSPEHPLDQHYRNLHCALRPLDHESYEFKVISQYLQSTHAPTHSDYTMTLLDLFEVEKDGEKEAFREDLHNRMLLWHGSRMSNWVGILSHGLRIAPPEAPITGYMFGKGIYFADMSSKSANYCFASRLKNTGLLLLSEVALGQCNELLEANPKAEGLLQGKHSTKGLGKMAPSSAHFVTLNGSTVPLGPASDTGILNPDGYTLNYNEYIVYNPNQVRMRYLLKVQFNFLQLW
UniProt Q9UGN5, whole entry Y201F: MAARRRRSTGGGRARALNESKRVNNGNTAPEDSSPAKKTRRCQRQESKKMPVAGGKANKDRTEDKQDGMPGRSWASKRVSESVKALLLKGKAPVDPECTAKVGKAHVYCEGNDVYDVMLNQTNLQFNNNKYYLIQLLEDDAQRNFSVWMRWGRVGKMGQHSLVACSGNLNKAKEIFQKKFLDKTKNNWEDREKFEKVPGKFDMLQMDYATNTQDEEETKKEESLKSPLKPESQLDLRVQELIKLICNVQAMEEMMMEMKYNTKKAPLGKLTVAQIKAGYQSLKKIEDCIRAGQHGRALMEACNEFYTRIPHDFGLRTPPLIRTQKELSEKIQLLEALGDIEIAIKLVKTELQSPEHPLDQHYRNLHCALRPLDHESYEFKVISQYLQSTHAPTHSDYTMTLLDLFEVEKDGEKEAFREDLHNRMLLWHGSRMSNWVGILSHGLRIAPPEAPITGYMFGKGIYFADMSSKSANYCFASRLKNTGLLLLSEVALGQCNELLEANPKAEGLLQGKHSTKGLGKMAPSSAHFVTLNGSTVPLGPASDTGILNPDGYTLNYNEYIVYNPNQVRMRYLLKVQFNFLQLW
UniProt Q9UGN5, whole entry E286A: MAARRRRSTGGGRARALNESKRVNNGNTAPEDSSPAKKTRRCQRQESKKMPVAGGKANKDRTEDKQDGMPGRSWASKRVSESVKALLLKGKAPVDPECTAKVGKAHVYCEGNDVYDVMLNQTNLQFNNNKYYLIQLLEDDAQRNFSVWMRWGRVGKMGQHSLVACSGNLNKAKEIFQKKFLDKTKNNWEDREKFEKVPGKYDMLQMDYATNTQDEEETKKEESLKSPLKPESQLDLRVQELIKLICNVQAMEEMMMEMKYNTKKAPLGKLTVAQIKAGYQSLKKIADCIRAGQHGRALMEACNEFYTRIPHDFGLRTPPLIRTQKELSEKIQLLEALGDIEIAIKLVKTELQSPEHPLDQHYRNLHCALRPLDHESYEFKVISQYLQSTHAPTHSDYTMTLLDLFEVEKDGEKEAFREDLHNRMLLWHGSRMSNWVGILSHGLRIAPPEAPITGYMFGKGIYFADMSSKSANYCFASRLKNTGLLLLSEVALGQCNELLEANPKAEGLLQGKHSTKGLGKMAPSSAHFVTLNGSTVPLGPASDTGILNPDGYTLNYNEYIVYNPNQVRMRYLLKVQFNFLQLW
UniProt Q9UGN5, whole entry E286R: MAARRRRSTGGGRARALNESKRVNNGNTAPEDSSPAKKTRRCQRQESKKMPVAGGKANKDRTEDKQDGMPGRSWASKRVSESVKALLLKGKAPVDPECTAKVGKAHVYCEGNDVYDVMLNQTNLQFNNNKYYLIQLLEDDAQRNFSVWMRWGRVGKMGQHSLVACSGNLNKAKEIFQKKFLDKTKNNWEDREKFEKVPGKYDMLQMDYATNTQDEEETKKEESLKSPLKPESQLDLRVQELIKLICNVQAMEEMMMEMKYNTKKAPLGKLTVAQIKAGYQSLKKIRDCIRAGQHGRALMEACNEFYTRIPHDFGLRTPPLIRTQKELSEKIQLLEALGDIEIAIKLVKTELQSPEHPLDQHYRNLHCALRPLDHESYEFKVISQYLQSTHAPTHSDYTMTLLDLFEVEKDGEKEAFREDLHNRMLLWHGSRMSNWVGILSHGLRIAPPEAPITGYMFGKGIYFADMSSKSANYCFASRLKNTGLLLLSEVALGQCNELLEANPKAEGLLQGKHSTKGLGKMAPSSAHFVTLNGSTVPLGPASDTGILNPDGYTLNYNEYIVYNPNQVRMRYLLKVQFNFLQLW

Assays:
Experiment in all cases: fluorescence polarization
Conditions in all cases: range over all mutants; 5'-phosphate on forward strand; residues 1-583
[1] = biological target: ARTD2FL G338A (Homo sapiens) (UniProt Q9UGN5)
[2] = biological target: ARTD2FL N129A (Homo sapiens) (UniProt Q9UGN5)
[3] = biological target: ARTD2FL Y201F (Homo sapiens) (UniProt Q9UGN5)
[4] = biological target: ARTD2FL E286A (Homo sapiens) (UniProt Q9UGN5)
[5] = biological target: ARTD2FL E286R (Homo sapiens) (UniProt Q9UGN5)

Measured: binding result

GACGCAACCCGGAGAACACA (double strand) [DNA-9]
binds: all assays above
